These are yes or no findings as the source states them, for the method shown. For some assays here: A result given as binding can be weak or reduced; the word gives no strength. For some assays here: Sequences can lack the tags named with a protein. For some assays here: In cells and extracts the contact can be indirect.
T1: VAMP4 fused to the T25 fragment of adenylate cyclase (pST25-VAMP4) (human) (UniProt O75379)
T1 sequence: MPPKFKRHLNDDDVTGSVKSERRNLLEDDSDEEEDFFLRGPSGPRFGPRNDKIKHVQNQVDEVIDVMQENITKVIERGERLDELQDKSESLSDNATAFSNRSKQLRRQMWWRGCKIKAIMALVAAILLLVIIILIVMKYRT

Amino acid sequences for entries named in this document (tags omitted).
UniProt Q15836: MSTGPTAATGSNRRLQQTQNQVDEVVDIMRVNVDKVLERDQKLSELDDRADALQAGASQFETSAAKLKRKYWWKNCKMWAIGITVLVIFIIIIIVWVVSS

T2: 3×FLAG-VAMP4 (human) (UniProt O75379)
T2 sequence: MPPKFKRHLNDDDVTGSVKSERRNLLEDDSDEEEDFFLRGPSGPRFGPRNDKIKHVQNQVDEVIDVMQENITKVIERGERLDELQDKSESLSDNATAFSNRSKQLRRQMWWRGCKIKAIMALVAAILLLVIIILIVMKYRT


Key:
[1] = biological target: T1, VAMP4 fused to the T25 fragment of adenylate cyclase (pST25-VAMP4) (human); experiment: two-hybrid; bacterial adenylate cyclase-based two-hybrid (BACTH) in E. coli DHT1 (ΔcyaA); VAMP on T25 (pST25), Inc on T18 (pUT18C); M63 minimal medium plates at 30°C and quantitative β-galactosidase assay; positive = 5-fold over the negative controls (empty vector, IncE) in all three replicates
[2] = biological target: T2, 3×FLAG-VAMP4 (human); experiment: co-IP; uninfected HeLa cells cotransfected with 3×FLAG-VAMP3 or 3×FLAG-VAMP4 and an Inc-6×His; lysates at 24 h (50 mM Tris-HCl pH 7.4, 150 mM NaCl, 0.5% sodium deoxycholate, 0.1% SDS, 1% Triton X-100); anti-FLAG magnetic beads overnight at 4°C, FLAG peptide elution, Western blot
[3] = biological target: 3×FLAG-VAMP3 (human) (UniProt Q15836); experiment: as above
[4] = biological target: CT442-FLAG (C. trachomatis serovar L2) (UniProt O84449); experiment: co-IP; HeLa cells transfected with 6×His-VAMP3 or 6×His-VAMP4 and infected with C. trachomatis serovar L2 Inc-FLAG strains; aTc at 7 hpi (20 hpi also for CT442-FLAG); lysates at time points from 15 to 30 hpi; anti-FLAG magnetic beads, Western blot for FLAG and 6×His
[5] = biological target: VAMP3 fused to the T25 fragment of adenylate cyclase (pST25-VAMP3) (human) (UniProt Q15836); experiment: two-hybrid; bacterial adenylate cyclase-based two-hybrid (BACTH) in E. coli DHT1 (ΔcyaA); VAMP on T25 (pST25), Inc on T18 (pUT18C); M63 minimal medium plates at 30°C and quantitative β-galactosidase assay; positive = 5-fold over the negative controls (empty vector, IncE) in all three replicates
[6] = biological target: CT449-FLAG (C. trachomatis serovar L2); experiment: co-IP; HeLa cells transfected with 6×His-VAMP3 or 6×His-VAMP4 and infected with C. trachomatis serovar L2 Inc-FLAG strains; aTc at 7 hpi (20 hpi also for CT442-FLAG); lysates at time points from 15 to 30 hpi; anti-FLAG magnetic beads, Western blot for FLAG and 6×His
[7] = biological target: CT223-FLAG (C. trachomatis serovar L2); experiment: as above
[8] = biological target: IncG-FLAG (C. trachomatis serovar L2); experiment: as above
[9] = biological target: CT222-FLAG (C. trachomatis serovar L2); experiment: as above
[10] = biological target: IncF-FLAG (C. trachomatis serovar L2); experiment: as above
[11] = biological target: CT226-FLAG (C. trachomatis serovar L2); experiment: as above
[12] = biological target: CT813-FLAG (C. trachomatis serovar L2); experiment: as above
[13] = biological target: IncA-FLAG (C. trachomatis serovar L2); experiment: as above

Row | Molecule | binding [1] | binding [2] | further results
1 | CT179 fused to the T18 fragment of adenylate cyclase (pUT18C) (C. trachomatis serovar L2) | binds | – | –
2 | IncF-6×His (C. trachomatis serovar L2) | – | binds | –
3 | CT226 fused to the T18 fragment of adenylate cyclase (pUT18C-CT226) (C. trachomatis serovar L2) | binds | – | –
4 | IncA fused to the T18 fragment of adenylate cyclase (pUT18C-IncA) (C. trachomatis serovar L2) | binds | – | –
5 | CT226-6×His (C. trachomatis serovar L2) | – | binds | –
6 | CT442-6×His (from UniProt O84449) | – | – | binding [3]: binds
7 | CT449-6×His (C. trachomatis serovar L2) | – | binds | –
8 | CT179-6×His (C. trachomatis serovar L2) | – | no binding | –
9 | IncG-6×His (C. trachomatis serovar L2) | – | binds | –
10 | CT813-6×His (C. trachomatis serovar L2) | – | binds | –
11 | IncC fused to the T18 fragment of adenylate cyclase (pUT18C) (C. trachomatis serovar L2) | binds | – | –
12 | IncF fused to the T18 fragment of adenylate cyclase (pUT18C-IncF) (C. trachomatis serovar L2) | binds | – | –
13 | IncG fused to the T18 fragment of adenylate cyclase (pUT18C) (C. trachomatis serovar L2) | binds | – | –
14 | 6×His-VAMP3 (from UniProt Q15836 1-100) | – | – | binding [4]: binds
15 | CT813 fused to the T18 fragment of adenylate cyclase (pUT18C) (C. trachomatis serovar L2) | binds | – | –
16 | CT006 fused to the T18 fragment of adenylate cyclase (pUT18C) (from UniProt O84009) | binds | – | binding [5]: binds
17 | CT222-6×His (C. trachomatis serovar L2) | – | binds | –
18 | CT223 fused to the T18 fragment of adenylate cyclase (pUT18C-CT223) (C. trachomatis serovar L2) | binds | – | –
19 | CT223-6×His (C. trachomatis serovar L2) | – | binds | –
20 | CT442 fused to the T18 fragment of adenylate cyclase (pUT18C) (from UniProt O84449) | – | – | binding [5]: binds
21 | IncA-6×His (C. trachomatis serovar L2) | – | binds | –
22 | CT222 fused to the T18 fragment of adenylate cyclase (pUT18C) (C. trachomatis serovar L2) | binds | – | –
23 | CT449 fused to the T18 fragment of adenylate cyclase (pUT18C) (C. trachomatis serovar L2) | binds | – | –
24 | 6×His-VAMP4 (protein, UniProt O75379 1-141) MPPKFKRHLNDDDVTGSVKSERRNLLEDDSDEEEDFFLRGPSGPRFGPRNDKIKHVQNQVDEVIDVMQENITKVIERGERLDELQDKSESLSDNATAFSNRSKQLRRQMWWRGCKIKAIMALVAAILLLVIIILIVMKYRT | – | – | binding [6]: no binding; binding [7]: no binding; binding [8]: no binding; binding [9]: no binding; binding [10]: no binding; binding [11]: no binding; binding [12]: no binding; binding [13]: no binding

Reference: publication PMC7822134
